This note sets out measurements from paper PMC6713708.

Results are given in words; binding and its absence hold for the method and conditions named. In cells and extracts the contact can be indirect. Some results given as binding are weak or reduced against the parent protein; the word gives no strength. Sequences can lack the tags named with a protein.

This test has as its target T1, GST-Syntaxin5 full length cytoplasmic domain (AA1-275) (rat) (UniProt Q08851).
T1 sequence: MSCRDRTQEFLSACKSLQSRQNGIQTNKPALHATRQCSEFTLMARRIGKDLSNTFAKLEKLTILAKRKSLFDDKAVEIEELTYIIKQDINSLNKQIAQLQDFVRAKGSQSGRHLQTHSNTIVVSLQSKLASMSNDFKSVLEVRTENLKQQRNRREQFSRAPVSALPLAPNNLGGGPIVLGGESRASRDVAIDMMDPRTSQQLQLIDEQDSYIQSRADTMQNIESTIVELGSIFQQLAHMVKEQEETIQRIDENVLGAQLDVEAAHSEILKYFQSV
Put plainly: pull-down; GST-Syntaxin5 cytoplasmic domain or GST-GS15 as bait; prey from HeLa cell extract; only the target purified.

B1: YFP-Golgin45 (protein, UniProt Q9H2G9 1-400)
chain: MTTKNLETKVTVTSSPIRGAGDGMETEEPPKSVEVTSGVQSRKHHSLQSPWKKAVPSESPGVLQLGKMLTEKAMEVKAVRILVPKAAITHDIPNKNTKVKSLGHHKGEFLGQSEGVIEPNKELSEVKNVLEKLKNSERRLLQDKEGLSNQLRVQTEVNRELKKLLVASVGDDLQYHFERLAREKNQLILENEALGRNTAQLSEQLERMSIQCDVWRSKFLASRVMADELTNSRAALQRQNRDAHGAIQDLLSEREQFRQEMIATQKLLEELLVSLQWGREQTYSPSVQPHSTAELALTNHKLAKAVNSHLLGNVGINNQKKIPSTVEFCSTPAEKMAETVLRILDPVTCKESSPDNPFFESSPTTLLATKKNIGRFHPYTRYENITFNCCNHCRGELIAL
Regarding B1, the binding entry is recorded as “binds”.

B2: GM130 (protein, UniProt Q08379 1-1002)
chain: MWPQPRLPPRPAMSEETRQSKLAAAKKKLREYQQRNSPGVPTGAKKKKKIKNGSNPETTTSGGCHSPEDTPKDNAATLQPSDDTVLPGGVPSPGASLTSMAASQNHDADNVPNLMDETKTFSSTESLRQLSQQLNGLVCESATCVNGEGPASSANLKDLESRYQQLAVALDSSYVTNKQLNITIEKLKQQNQEITDQLEEEKKECHQKQGALREQLQVHIQTIGILVSEKAELQTALAHTQHAARQKEGESEDLASRLQYSRRRVGELERALSAVSTQQKKADRYNKELTKERDALRLELYKNTQSNEDLKQEKSELEEKLRVLVTEKAGMQLNLEELQKKLEMTELLLQQFSSRCEAPDANQQLQQAMEERAQLEAHLGQVMESVRQLQMERDKYAENLKGESAMWRQRMQQMSEQVHTLREEKECSMSRVQELETSLAELRNQMAEPPPPEPPAGPSEVEQQLQAEAEHLRKELEGLAGQLQAQVQDNEGLSRLNREQEERLLELERAAELWGEQAEARRQILETMQNDRTTISRALSQNRELKEQLAELQSGFVKLTNENMEITSALQSEQHVKRELGKKLGELQEKLSELKETVELKSQEAQSLQQQRDQYLGHLQQYVAAYQQLTSEKEVLHNQLLLQTQLVDQLQQQEAQGKAVAEMARQELQETQERLEAATQQNQQLRAQLSLMAHPGEGDGLDREEEEDEEEEEEEAVAVPQPMPSIPEDLESREAMVAFFNSAVASAEEEQARLRGQLKEQRVRCRRLAHLLASAQKEPEAAAPAPGTGGDSVCGETHRALQGAMEKLQSRFMELMQEKADLKERVEELEHRCIQLSGETDTIGEYIALYQSQRAVLKERHREKEEYISRLAQDKEEMKVKLLELQELVLRLVGDRNEWHGRFLAAAQNPADEPTSGAPAPQELGAANQQGDLCEVSLAGSVEPAQGEAREGSPRDNPTAQQIMQLLREMQNPRERPGLGSNPCIPFFYRADENDEVKITVI
Consider B2, for which the binding result is reported as “binds”.
